# Measurements: US12559525B2 (priority 2021, dated 2026)
# Assay: general procedure: Fmoc solid-phase peptide synthesis
# Details: conjugation step
substance,measurement,value
C(Mal-Cy5)-GGG-QVTTGSNLVEFTEESLGIVTGAVSDHTTVEDT,final HPLC purity,>95%
